B1: Adaptin (protein, UniProt P91926 1-940)
chain: MAPVRGDGMRGLAVFISDIRNCKSKEAEVKRINKELANIRSKFKGDKTLDGYQKKKYVCKLLFIFLLGHDIDFGHMEAVNLLSSNKYSEKQIGYLFISVLVNTNSDLIRLIIQSIKNDLQSRNPVHVNLALQCIANIGSRDMAESFSNEIPKLLVSGDTMDVVKQSAALCLLRLFRSSPDIIPGGEWTSRIIHLLNDQHMGVVTAATSLIDALVKRNPDEYKGCVNLAVSRLSRIVTASYTDLQDYTYYFVPAPWLSVKLLRLLQNYNPVTEEAGVRARLNETLETILNKAQEPPKSKKVQHSNAKNAVLFEAINLIIHSDSEPNLLVRACNQLGQFLSNRETNLRYLALESMCHLATSEFSHEEVKKHQEVVILSMKMEKDVSVRQMAVDLLYAMCDRGNAEEIVQEMLNYLETADYSIREEMVLKVAILAEKYATDYTWYVDVILNLIRIAGDYVSEEVWYRVIQIVINREEVQGYAAKTVFEALQAPACHENMVKVGGYILGEFGNLIAGDSRSAPLVQFKLLHSKYHLCSPMTRALLLSTYIKFINLFPEIRTNIQDVFRQHSNLRSADAELQQRASEYLQLSIVASTDVLATVLEEMPSFPERESSILAVLKKKKPGRVPENEIRESKSPAPLTSAAQNNALVNNSHSKLNNSNANTDLLGLSTPPSNNIGSGSNSNSTLIDVLGDMYGSNSNNNSSAVYNTKKFLFKNNGVLFENEMLQIGVKSEFRQNLGRLGLFYGNKTQVPLTNFNPVLQWSAEDALKLNVQMKVVEPTLEAGAQIQQLLTAECIEDYADAPTIEISFRYNGTQQKFSIKLPLSVNKFFEPTEMNAESFFARWKNLSGEQQRSQKVFKAAQPLDLPGARNKLMGFGMQLLDQVDPNPDNMVCAGIIHTQSQQVGCLMRLEPNKQAQMFRLTVRASKETVTREICDLLTDQF
B2: Paramyosin (protein, UniProt P35415 1-879)
chain: MSSSQAVRSSKYSYRATSTGPGTADVNIEYIQDLSSLSRLEDKIRLLQDDLEVERELRQRIEREKADLSVQVIQMSERLEEAEGGAEHQFEANRKRDAELLKLRKLLEDVHLESEETTLLLKKKHNEIITDFQEQVEILTKNKARAEKDKAKFQTEVYELLSQIESYNKEKIVSEKHISKLEVSISELNVKIEELNRTVIDISSHRSRLSQENIELTKDVQDLKVQLDTVSFSKSQVISQLEDARRRLEDEDRRRSLLESSLHQVEIELDSVRNQLEEESEARIDLERQLVKANADATSWQNKWNSEVAARAEEVEEIRRKYQVRITELEEHIESLIVKVNNLEKMKTRLASEVEVLIIDLEKSNNSCRELTKSVNTLEKHNVELKSRLDETIILYETSQRDLKNKHADLVRTVHELDKVKDNNNQLTRENKKLGDDLHEAKGAINELNRRLHELELELRRLENERDELTAAYKEAEAGRKAEEQRGQRLAADFNQYRHDAERRLAEKDEEIEAIRKQTSIEIEQLNARVIEAETRLKTEVTRIKKKLQIQITELEMSLDVANKTNIDLQKVIKKQSLQLTELQAHYEDVQRQLQATLDQYAVAQRRLAGLNGELEEVRSHLDSANRAKRTVELQYEEAASRINELTTANVSLVSIKSKLEQELSVVASDYEEVSKELRISDERYQKVQVELKHVVEQVHEEQERIVKLETIKKSLEVEVKNLSIRLEEVELNAVAGSKRIISKLEARIRDLELELEEEKRRHAETIKILRKKERTVKEVLVQCEEDQKNLILLQDALDKSTAKINIYRRQLSEQEGVSQQTTTRVRRFQRELEAAEDRADTAESSLNIIRAKHRTFVTTSTVPGSQVYIQETTRTITE
B3: Stoned A (protein, UniProt Q24211 1-850)
chain: MLKLPKGLKKKKKKSKKDQELFTEEELEQYKRDLKAKQEAAATKSDAGESDGASSDVEAHHEPVAFNSGLGSGSSSSILNAQQQLSDQNQGAAGGDEEWAKFKALTSGVDSILHKTQDELDRIKKESFYQRLPSAAEKKKQKEEEAARLEAEQQEREKQRLGQIEAQRDKLAEAVVQLSESEEEAGDYEADDIFATDYIEAITSGELQLAVVPDSPVLAEDGPDPFDTAYAEKVIVGADRAKGNKKLVSLGAAVEVLSGRVDREHAVALANPKRKLRKGIQNLLLSESIELADSEAELLAATSNAEPQHNLLDDLDEELSESSVPIDLSVSLHLHLIKHKQPVEEEEELEQKGRENQLLNPDLSEFDSLKDEEDDEFAELAAESLTKKEEVTVVSQVVLPVAQLPTEAFEAGSWAEFEEQSGQEPGKPKRPPPPVRPPTGPHIVPGAIYVSEDEEENPEDDPFNTNYAEQVIKKTTVLEEDDDFDPRAEEHATEPPFLAAPQRDLLAGSATDLSQVVPAPLAPTLSVDQEAEDFDPFDTSAVSALVQPKSTELRFLERELLNYSGLDGVTLKHSLSDQDFDPRADQKEPAAPQVKLEQKETDFDTAQRKSSLSLNIQAKSVGFLVPASDLLGAGNELGASKKPLTPYYAPSDNRLQEREREAEDVDPFDTSHVPEAKLSDIELKHIEKDLISVPANLRHSLSDPDFDPRAPPTPVPAEVLLAVEENINIKVLTPAQDRKKLTNSGGSGKSEEDIDPFDTSIAANLQPGQTELKLLENELLPETKTLVTDVLDVQSDAQELGLGDKVLTPSTHSRPSLPAQDIDPFDTSIAENLAPGEAEIKLLESELIER
B4: Retinal degeneration A (protein, UniProt Q09103 1-1457)
chain: MQQQQQPSIDQLPEPTASTSNSATTKPTIATATTSTTTTSGNNFHQQLQATTAATMQRLRTTFTRSRTPTGAEMKMQNSLEVPKQVRSASFDEMQLESQRASSSLLKQQSSSSASADERSSEAGFLQVPLAAHQQRSHSFDSATASAGSDDSGTFLEVPRRLKARRSSSTKTPPPCIHCHYLEEYERRMTAEQRYFIDHRELTALSYSNTSSEASEDEDEVEGHNAEEEEEGSAAIEDAEEETTEAATEEADEDPRTEVESEHDHDPDDDAALEMDIRIGNMSQGSSIEESRARLPRQMRRHTIGSSSVTSASEDEGLEGSDNGSPHFGNTLLPPQPTTPCGITFTLSPTNGDYPSPPHLPLDPGSPPISPCSSNSGRLPALAPIISTPCSSADADDAGAAMGLPVRARRRSISRQEAIFVEPTGNSLENVSHEEVDNSNTKSSVDTADSLDEASTMATCGSPGAAGGSGASSSHHNAFVVRDIYLMVPDLKRDRAASVDSCFSKLSSNAKTEELQPSADGCFLTVPNINATRSRSVDIVLPTDEQARYKALSMTGSTVTYADGRTASASNSRRPIRIVPDWTENAVQGEHYWKPTSASGDLCCLNEECIKSGQRMKCSACQLVAHHNCIPFVNEKSTLACKPTYRDVGIRQYREQTTTHHHWVHRKLEKGKCKQCGKFFPMKQAVQSKLFGSKEIVALACAWCHEIYHNKEACFNQAKIGEECRLGNYAPIIVPPSWIVKLPTKGNFKSSIRVSNKNNAASGSGGGGAGGGAGGGGGKSKKQTQRRQKGKEEKKEPRAFIVKPIPSPEVIPVIVFINPKSGGNQGHKLLGKFQHLLNPRQVFDLTQGGPKMGLDMFRKAPNLRVLACGGDGTVGWVLSVLDQIQPPLQPAPAVGVLPLGTGNDLARALGWGGGYTDEPIGKILREIGMSQCVLMDRWRVKVTPNDDVTDDHVDRSKPNVPLNVINNYFSFGVDAHIALEFHEAREAHPERFNSRLRNKMYYGQMGGKDLILRQYRNLSQWVTLECDGQDFTGKLRDAGCHAVLFLNIPSYGGGTHPWNDSFGASKPSIDDGLMEVVGLTTYQLPMLQAGMHGTCICQCRKARIITKRTIPMQVDGEACRVKPSVIEIELLNKALMLSKRKHGRGDVQVNPLEKMQLHILRVTMQQYEQYHYDKEMLRKLANKLGQIEIESQCDLEHVRNMLNTKFEESISYPKVSQDWCFIDSCTAEHYFRIDRAQEHLHYICDIAIDELYILDHEAATMPQTPDQERSFAAFSQRQAQNERRQMDQAQGRGPGSTDEDLQIGSKPIKVMKWKSPILEQTSDAILLAAQSGDLNMLRALHEQGYSLQSVNKNGQTALHFACKYNHRDIVKYIIASATRRLINMADKELGQTALHIAAEQNRRDICVMLVAAGAHLDTLDSGGNTPMMVAFNKNANEIATYLESKQGTQPVDGWLDD
B5: endogenous Pur α (protein, UniProt Q95RR6 1-274)
chain: MSDLGSGDDGISGSKYNVANMEGSSSRNDFDSSAKGGSGVEQELATKMLQIQSKRFYLDVKQNRRGRFIKVAEIGADGRRSQIYLALSTAAEFRDHLSSFSDYYASLGPPNTDNLPEDGKLKSEMMIKDYRRYYLDLKENARGRFLRVSQTITRGGPRSQIALPAQGMIEFRDALTDLLEEFGANDGGFKGDLPEERHMKVDNKNFYFDIGQNNRGVYMRISEVKNNFRTSITIPEKCWIRFRDIFNDYCEKMKKSSDSITAEINLPTSSNSLK
B6: Glutathione S transferase S1 (protein, UniProt P41043 1-249)
chain: MADEAQAPPAEGAPPAEGEAPPPAEGAEGAVEGGEAAPPAEPAEPIKHSYTLFYFNVKALAEPLRYLFAYGNQEYEDVRVTRDEWPALKPTMPMGQMPVLEVDGKRVHQSISMARFLAKTVGLCGATPWEDLQIDIVVDTINDFRLKIAVVSYEPEDEIKEKKLVTLNAEVIPFYLEKLEQTVKDNDGHLALGKLTWADVYFAGITDYMNYMVKRDLLEPYPALRGVVDAVNALEPIKAWIEKRPVTEV
B7: Sluggish A (protein, UniProt Q04499 31-681)
chain: VAACRSFHQRGSGSTSIAGEGAASESTRGVNGARFLHSGDRPLQASTLVQPEVVSSETVKRSMKQESSQEKNPSPAGSPQRDPLDVSFNDPIAAFKSKTTGELIRAYLVYMICSSEKLVEHNMTLMKLARNLLGQKLFVLLMKSSFYGHFVAGENRHTIVPALERLRSFGVKPILDYSVEEDITQEEAEKREVESSVSSAGDKKEEGSMPQYHVDKSFADRRYKVSSARTYFYLNEATCERNMEIFIKCLEAVSDDDRKAPRAVATGATFGTGITAIKLTALGRPQLLLQLSEVIMRTRKYMEDMVGGQGNVLTHHKTIKDLEKYYATLGDNKDVKEFLNNVTSDKEGILHLFPWSGIVDEDSQLSDTFRVPDPQTGQMRRLISQIPPKEEEMFRNMIRRLNTIVKAAADLDVRIMVDAEQTYFQPAISRITLEMMRKYNKDKAIVFNTYQCYLRETFREVNTDLEQAKRQNFYFGAKLVRGAYMDQERDRAKSLGYPDPVNPTFEATTDMYHRTLSECLRRIKLMKDCDDDARKIGIMVASHNEDTVRFAIQQMKEIGISPEDKVICFGQLLGMCDYITFPLGQAGYSAYKYIPYGPVEEVLPYLSRRAQENKGVLKKIKKEKRLLLSEIRRRLMRGQLFYKPKGNYVPI

No constants are given. Whether binding was seen depends on the method and setting. Binding seen in cells or lysates may run through a third protein. A yes stands for co-enrichment or nearness to the bait. Other partners may have been found.

For this experiment, the target named is GST-Pur α fusion protein (Drosophila melanogaster) (UniProt Q95RR6). In words: affinity purification with mass spectrometry; GST-Pur α (GST alone as control) on glutathione beads packed as a column; dialysed and cleared wild-type adult fly head extract (20 mM Hepes pH 7.2, 0.1 M NaCl) run through; washed, eluted with 0.2, 0.6 and 2 M NaCl buffers; SDS gel, LC-MS/MS; only the target purified.
Take B1: the binding entry is recorded as “binds”. Take B2: the binding entry is “binds”. Take B3: the binding result was “binds”. The same measure for B4: “binds”; for B5: “binds”; for B6: “binds”. For B7 the value was “binds”.

The values are drawn from paper PMC3107199.
